PubChem BioAssay AID590 (National Center for Advancing Translational Sciences (NCATS), 2007)
In all, about 59,000 compounds went through this assay and about 6,500 (11%) were called active. The shares of active, inactive and inconclusive entries below differ from those in the screen. Rule as the data show it: active = max dye-equivalent concentration above about 10 nM; inconclusive = mostly about 1.1 nM to 9.6 nM; inactive = weaker than that.

Assay: qHTS Assay for Spectroscopic Profiling in A350 Spectral Region
Conditions: Compound autofluorescence, 340/450 nm, Alexa 350 dye-equivalents; active compounds read high

| SMILES | max dye-equivalent concentration |
| --- | --- |
| CC1CCC(NC(=O)C2CCN(C(=O)NC3CCCCC3)CC2)CC1 (configuration not stated) | inactive |
| CCSc1ccccc1C(=O)N1CCN(c2ccccc2F)CC1 | inactive |
| Nc1c2c(nc3ccccc13)CCCC2 | inactive |
| O=C(Nc1ccccc1N1CCN(C(=O)c2ccccc2)CC1)c1cc2ccccc2o1 | inconclusive: 4.3 nM |
| C[N+](C)(C)CCN(Cc1cccs1)c1ccccn1 | active: 19 nM |
| Cc1ccc2c(CC(=O)NCC3COc4ccccc4O3)coc2c1 (configuration not stated) | inconclusive: 6.9 nM |
| CN1CCN(c2nc3c(c(=O)[nH]c(=O)n3C)n2CCCSc2ncccn2)CC1 | inconclusive: 8.6 nM |
| COc1ccc2c(c1)cc1n2CCN2CCCN=C12 | active: 24 nM |
| CC(C)CC(=O)Nc1ccccc1-c1nnn(CC(=O)N2CCOCC2)n1 | inactive |
| CS(=O)(=O)N1CCc2cc(S(=O)(=O)N3CCN(Cc4ccc5c(c4)OCO5)CC3)ccc21 | inconclusive: 1.2 nM |
| Cc1ccccc1N(CC(=O)NCC1CCCO1)C(=O)C1(C)CC(=O)N=C2C=CC=CN21 (configuration not stated) | active: 1200 nM |
| Cc1ccc2c(c1)c1c3n2CC(=C2C(=O)OC(C)(C)OC2=O)NC3CCC1 (configuration not stated) | inconclusive: 4.5 nM |
| Cc1ccccc1OCCNC(=O)CNC(=O)c1ccccc1O | active: 17 nM |
| O=C(NCC1CCCO1)c1ccccc1-c1nc(-c2ccc(F)cc2)no1 (configuration not stated) | inconclusive: 1.6 nM |
| C=CCn1c(-c2cc(OC)c(OC)c(OC)c2)n[nH]c1=S | inactive |
| Cc1ccc(C(=O)CSc2nnc(-c3ccccc3N)n2C)cc1 | inconclusive: 1.5 nM |
| c1csc(CNc2ncnc3ccc(-c4ccc5c(c4)OCO5)cc23)c1 | inconclusive: 1.8 nM |
| O=C(NCc1ccccn1)c1ccc(Cn2cc(Br)cn2)o1 | inconclusive: 1.4 nM |
| O=C1c2cccnc2C(=O)N1c1cccc(-c2nc3ccccc3o2)c1 | inactive |
| COc1ccc2cc(S(=O)(=O)N3CCN(C)CC3)ccc2c1 | inconclusive: 2.9 nM |
| C=C[C@H]1CN2CC[C@@H]1C[C@@H]2[C@@H](O)c1ccnc2ccc(OC)cc12 | inconclusive: 4.9 nM |
| CCCCNC(=O)c1c(N)n(/N=C/c2ccccn2)c2nc3ccccc3nc12 | inactive |
| Cc1cc(C(=O)O)c(=O)[nH]c1C | inconclusive: 3.2 nM |

| SMILES | max dye-equivalent concentration |
| --- | --- |
| CC(=O)c1ccc(NC(=O)N[C@@H](Cc2ccccc2)C(=O)O)cc1 | inactive |
| COC(=O)c1ccc(CSc2nc(N)cc(N)n2)cc1 | inconclusive: 1.2 nM |
| CCn1ncc(Br)c1C(=O)Nc1sc2c(c1C(N)=O)CCC2 | active: 150 nM |
| COC(=O)c1cc(OC)c(OC)cc1NC(=O)c1ccco1 | inconclusive: 3.4 nM |
| O=C(Nc1ccc(-c2cn3ccccc3n2)cc1)c1cc(Br)ccc1O | inconclusive: 2.5 nM |
| CC(C)n1c(/C=C\[C@@H](O)C[C@@H](O)CC(=O)O)c(-c2ccc(F)cc2)c2ccccc21 | inconclusive: 3.7 nM |
| COc1ccc(OCC(=O)Nc2cccc3ncccc23)cc1 | inconclusive: 2.9 nM |
| Cn1c(=O)c2[nH]c(CCNC(=O)c3ccccc3)nc2n(C)c1=O | inconclusive: 3 nM |
| OC1(Cc2ccn[nH]2)CCCCC1 | inconclusive: 1.3 nM |
| O=C(COc1ccc(S(=O)(=O)NC2CCCCC2)cc1)NCc1ccccn1 | inactive |
| CS(=O)(=O)c1ccc2nc(NC(=O)CN3CCN(Cc4ccccc4)CC3)sc2c1 | inconclusive: 1.2 nM |
| COc1ccc(NC(=O)N2CCCC3(CCNCC3)C2)cc1 | inactive |
| N[C@H](COP(=O)(O)O)C(=O)O | inconclusive: 3 nM |
| COC(=O)c1cc(NC(=O)CN2CCOCC2)cc(C(=O)OC)c1 | inconclusive: 1.4 nM |
| CCOC(=O)N1CCN(c2ncnc3c2oc2nc(CC(C)C)c4c(c23)CCC4)CC1 | active: 51 nM |
| Cc1ccc2nc3c(cc(C#N)c(=O)n3CCN3CCOCC3)c(=O)n2c1 | active: 1100 nM |
| CN=C1c2cc3c(Br)c(OC)ccc3n2CCN1C | inconclusive: 1.3 nM |
| CCOC(=O)c1cnc2c(Cl)c(Cl)ccc2c1N1CCN(C)CC1 | inactive |
| CN(C)c1cc(N)c2ccccc2n1 (tested in a mixture with another compound) | inconclusive: 2 nM |
| CC(C)C(NCc1c(Cl)cccc1Cl)C(=O)O (configuration not stated) | inconclusive: 3.6 nM |
| CCO/C(C)=N/n1c2nc3ccccc3nc2c2c(=O)n(CC(C)C)c(C)nc21 | active: 32 nM |
| C=CCOc1ccc2ccccc2c1CNc1ncn[nH]1 | inactive |
| CCOc1ccc(C2C=C(c3ccccc3)Nc3nnnn32)cc1 (configuration not stated) | inconclusive: 9.3 nM |

| SMILES | max dye-equivalent concentration |
| --- | --- |
| O=C1c2ccccc2C(=O)N1CCC(c1ccc(F)cc1)c1ccco1 (configuration not stated) | inconclusive: 1.3 nM |
| O=C(CN1CCOCC1)OCCCc1ccccc1 | inconclusive: 5.4 nM |
| Fc1ccccc1N1CCN(c2nc3ccccc3n3nnnc23)CC1 | active: 44 nM |
| Cc1ccc2c(c1)c1ncn(CCC3=CCCCC3)c(=O)c1n2C | inconclusive: 8.3 nM |
| O=C(c1ccc2c(c1)OCO2)[C@@H]1[C@@H]2C(=O)N(C3CCCCC3)C(=O)[C@@H]2C2c3ccccc3C=CN21 (some centres not stated) | inconclusive: 2.1 nM |
| NC(=O)c1ccccc1-c1nc(-n2ccnc2)c2ccccc2n1 | inconclusive: 2.8 nM |
| CCOC(=O)CSc1nnc(-c2cccc(Cl)c2)n1CC | inconclusive: 1.9 nM |
| COc1ccccc1-n1cc(C(=O)NCC(=O)N2CCN(c3ccccn3)CC2)c2ccccc2c1=O | inconclusive: 2.2 nM |
| Cc1c(OCC(=O)OC(C)C)ccc2c3c(c(=O)oc12)CCC3 | inconclusive: 5.8 nM |
| COC(=O)c1ccc(-n2nnnc2SCC(=O)NCc2cccc(C(=O)O)c2)cc1 | inconclusive: 1.2 nM |
| CN(C)C(N)=NCCC[C@H](N)C(=O)O | inactive |
| CCN(c1cccc(C)c1)S(=O)(=O)c1ccc2[nH]c(=O)c(=O)[nH]c2c1 | inactive |
| Nc1cc(N)nc(SCc2ccccc2)n1 | inconclusive: 1.9 nM |
| Cc1ccccc1Cn1c(CN2CCc3ccccc3C2)nc2c1c(=O)n(C)c(=O)n2C | inconclusive: 3.6 nM |
| CC(C)c1nc(=S)c2ccccc2[nH]1 | inconclusive: 2 nM |
| CCn1c(=N)c(C(=O)OC)cc2c(=O)n3ccccc3nc21 | active: 34000 nM |
| Cc1ccc(NC(=O)c2cc(N(C)C)ccc2[P+](=O)O)cc1 | inconclusive: 2.3 nM |
| Cc1ccc2nc(-c3ccccc3Cl)cc(C(=O)Nc3cc(C)on3)c2c1 | inconclusive: 1.3 nM |
| O=S(=O)(Nc1cccc2ccccc12)N1CCCC1 | inconclusive: 3.2 nM |
| CCOc1ccc2c(ccc(/C=C\c3cc(C)c4cccnc4c3O)[n+]2C)c1 | active: 14 nM |
| COc1cc(-c2nnc(SCc3ccccc3Cl)o2)cc(OC)c1OC | inconclusive: 1.9 nM |
| O=C(CCCN1CCN(c2ccccn2)CC1)c1ccc(F)cc1 | inconclusive: 3 nM |
| N#CCCn1c(=O)cnc2cnc(N3CCNCC3)nc21 | active: 110 nM |

| SMILES | max dye-equivalent concentration |
| --- | --- |
| c1ccc2[nH]c(SCc3cscn3)nc2c1 | inconclusive: 3.7 nM |
| COCCn1c(=O)cnc2cnc(N(C)C)nc21 | inconclusive: 2.9 nM |
| COc1ccc(/C(O)=C2/C(=O)C(=O)N(CCCN(C)C)C2c2cccc(Cl)c2)cc1OC (configuration not stated) | inactive |
| CO/C([O-])=N/c1c[n+](-c2ccc(C)cc2)no1 | inconclusive: 1.8 nM |
| CC(C)CC(NC(=O)COc1ccccc1)C(=O)O (configuration not stated) | inconclusive: 6.4 nM |
| CCn1c(SCC(=O)Nc2cc(OC)ccc2OC)nnc1C1CCCCC1 | inactive |
| O=C(O)c1cc2ccccc2c(Cc2cc3ccccc3c(C(=O)O)c2O)c1O (tested in a mixture with another compound) | inconclusive: 5.6 nM |
| C[C@@H]1CNCCN1S(=O)(=O)c1cccc2cnccc12 | inconclusive: 3.5 nM |
| COc1cccc(Nc2ncc3nc(-c4ccccc4)c(=O)n(C[C@H]4CCCO4)c3n2)c1 | inactive |
| c1ccc(C2=Nn3c(nnc3-c3ccncc3)SC2)cc1 | inconclusive: 1.1 nM |
| CCc1noc(C)c1C(=O)N1CCCC1 | inconclusive: 1.2 nM |
| COc1ccc(C2=NOC(C(=O)Nc3cc(Br)ccc3O)C2)cc1OC (configuration not stated) | inactive |
| O=C(c1cnccn1)N1CCC2(CCCN(c3ccccn3)C2)CC1 | inactive |
| CC1(C)Cc2cccc(OCC(O)CN3CCN(c4ccccn4)CC3)c2O1 (configuration not stated) | inactive |
| CCCCCn1c(=O)[nH]c2cc(C(=O)O)ccc2c1=O | active: 12 nM |
| CN(C)c1cccc2c(S(=O)(=O)N3CCOCC3)cccc12 | inconclusive: 1.8 nM |
| c1ccc2c(c1)NC(c1ccncc1)n1c-2nc2ccccc21 (configuration not stated) | active: 580 nM |
| CCN(CC)CCCN1C(=O)C(=O)/C(=C(/O)c2ccc(OC)cc2)C1c1ccco1 (configuration not stated) | inconclusive: 1.2 nM |
| COc1ccc(OC)c(C(=O)CSc2nnc(Cc3cccs3)n2C)c1 | inactive |
| CC1C(=O)C(C)C(c2ccc3c(c2)OCO3)NC1c1ccc2c(c1)OCO2 (configuration not stated) | inactive |
| Cc1ccc(S(=O)(=O)Cn2nnnc2C(C(C)C)N2CCc3ccccc3C2)cc1 (configuration not stated) | inconclusive: 3.9 nM |
| CCCOc1ccc(N)cc1N | inconclusive: 3.3 nM |
| CCOC(=O)C1=Nc2ccccc2C1=[N+]=[N-] | inconclusive: 5.9 nM |

4 entries out of the list, sorted by count of non-hydrogen atoms, rising.

| SMILES | max dye-equivalent concentration |
| --- | --- |
| c1ccc2[nH]c(SCc3cscn3)nc2c1 | inconclusive: 3.7 nM |
| COc1ccc(C2=NOC(C(=O)Nc3cc(Br)ccc3O)C2)cc1OC (configuration not stated) | inactive |
| CCn1c(SCC(=O)Nc2cc(OC)ccc2OC)nnc1C1CCCCC1 | inactive |
| Cc1ccc(S(=O)(=O)Cn2nnnc2C(C(C)C)N2CCc3ccccc3C2)cc1 (configuration not stated) | inconclusive: 3.9 nM |
